{"source": "PubChem BioAssay AID1224826 | NIAID – 2016", "screen": "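Knock-downs that raise or lower Tnf reporter signal after endotoxin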 (primary screen)", "cells": "RAW264.7 G9 macrophages from mouse bearing reporters for p65 (GFP) and the Tnf promoter (mCherry)", "knock-down reagent": "siRNA pool against mouse genes, 100 nM", "timing": "16 h of LPS stimulation, after 2 days of siRNA transfection", "treatment": "bacterial lipopolysaccharide (Salmonella minnesota R595), 10 ng/ml", "detection": "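Nuclear mCherry signal of the Tnf promoter reporter measured by imaging after background removal, scaled to each plate median and turned into robust z-scores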", "reading the numbers": "Tnf reporter robust z-score: higher = stronger Tnf promoter reporter signal after LPS", "hit rule": "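a well counts as active at a score of -1.3 or below (Tlr4 knock-down control median) or above 3 (raised signal); controls and wells holding fewer than 50 cells are excluded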", "calls": "active = Tnf reporter clearly lowered or raised; inactive = no clear change in Tnf reporter", "note": "The deposit covers about 17,000 reagents; this is a part drawn at random. About 1,110 of them (6.6%) count as active. 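Active means lowered or raised reporter signal; replicate intensities are raw and not normalised per plate.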 Further read-outs or replicates are left out here."}
{"target gene": "Ctrl (GeneID 109660)", "Tnf reporter robust z-score": 0.12, "fewer than 50 cells in well": "enough cells in well", "outcome": "inactive"}
{"target gene": "Kcnj16 (GeneID 16517)", "Tnf reporter robust z-score": 0.18, "fewer than 50 cells in well": "enough cells in well", "outcome": "inactive"}
{"target gene": "D930030O05Rik (GeneID 320387)", "Tnf reporter robust z-score": 0.72, "fewer than 50 cells in well": "enough cells in well", "outcome": "inactive"}
{"target gene": "Gtf2h3 (GeneID 209357)", "Tnf reporter robust z-score": -0.5, "fewer than 50 cells in well": "enough cells in well", "outcome": "inactive"}
{"target gene": "Epha7 (GeneID 13841)", "Tnf reporter robust z-score": -0.61, "fewer than 50 cells in well": "enough cells in well", "outcome": "inactive"}
{"target gene": "Cbx8 (GeneID 30951)", "Tnf reporter robust z-score": 0.47, "fewer than 50 cells in well": "enough cells in well", "outcome": "inactive"}
{"target gene": "Ddit3 (GeneID 13198)", "Tnf reporter robust z-score": -0.82, "fewer than 50 cells in well": "enough cells in well", "outcome": "inactive"}
{"target gene": "Ren1 (GeneID 19701)", "Tnf reporter robust z-score": 0.79, "fewer than 50 cells in well": "enough cells in well", "outcome": "inactive"}
{"target gene": "Mrgprb4 (GeneID 233230)", "Tnf reporter robust z-score": 1.3, "fewer than 50 cells in well": "enough cells in well", "outcome": "inactive"}
{"target gene": "Cyp2j6 (GeneID 13110)", "Tnf reporter robust z-score": 0.65, "fewer than 50 cells in well": "enough cells in well", "outcome": "inactive"}
{"target gene": "Vangl2 (GeneID 93840)", "Tnf reporter robust z-score": -0.91, "fewer than 50 cells in well": "enough cells in well", "outcome": "inactive"}
{"target gene": "Cenpi (GeneID 102920)", "Tnf reporter robust z-score": 0.27, "fewer than 50 cells in well": "enough cells in well", "outcome": "inactive"}
{"target gene": "Col13a1 (GeneID 12817)", "Tnf reporter robust z-score": -0.05, "fewer than 50 cells in well": "enough cells in well", "outcome": "inactive"}
{"target gene": "Rpl32 (GeneID 19951)", "fewer than 50 cells in well": "fewer than 50 cells per well; well left out of calls", "outcome": "inactive"}

Copied from above for reference:
{"target gene": "Cenpi (GeneID 102920)", "Tnf reporter robust z-score": 0.27, "fewer than 50 cells in well": "enough cells in well", "outcome": "inactive"}
{"target gene": "Col13a1 (GeneID 12817)", "Tnf reporter robust z-score": -0.05, "fewer than 50 cells in well": "enough cells in well", "outcome": "inactive"}
